The list shows a part of the results. Shown are side measurements of this screen, not its main read-out; they come without a call. The list favours compounds with an active or inconclusive main result. Potencies come from curve fits of mixed quality, noted in brackets.
Assay: qHTS Assay for Lipid Storage Modulators in Drosophila S3 Cells;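 for cell number change: cells counted by Cell Tracker Red CMTPX staining in the red channel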
Details: BODIPY lipid droplet fluorescence, 18-24 h; for cell number change: measured here: cell count max response, cells fed with added oleic acid
Outline: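 Laser-scanning cytometry quantifies lipid droplet accumulation (500–530 nm total intensity; droplet/cell object ratio) in oleic acid-fed (400 uM added) Drosophila S3 cells treated with a concentration series. 20 uM Triacsin C defined 100% inhibition.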

[1] = measured here: lipid fluorescence (Fed channel) AC50, cells fed with added oleic acid
[2] = measured here: cell number channel AC50, cells fed with added oleic acid

SMILES | cell number change [%] | AC50 [1] | AC50 [2]
CNS(=O)(=O)c1ccc(C(=O)NCC(=O)NCC2COc3ccccc3O2)cc1 (stereo not given) | -3.23 | 18.4 µM [rising, single point] | –
Cc1cc(C(=O)NCCCN2CCOCC2)n(-c2ccccc2)n1 | -33.2 | 23.1 µM [falling, partial curve] | 8.2 µM [falling, single point]
CCN(c1ccccc1)S(=O)(=O)c1ccc(Cl)c(NC(=O)CSc2nncs2)c1 | -18 | – | –
CC(=O)Nc1ccc(Nc2ccc3c4c(cc(=O)n3C)-c3ccccc3C(=O)c24)cc1 | 41.9 | – | 18.4 µM [rising, single point]
COC(=O)CC1C(=O)NCCN1C(=O)c1cc([N+](=O)[O-])ccc1Cl (stereo not given) | -0.794 | 3.66 µM [falling, single point] | –
O=C(CCC(=O)NC1CCN(Cc2ccccc2)CC1)NCc1ccco1 | -0.0246 | 0.82 µM [falling, full curve] | –
O=C(On1c(-c2ccccc2)nc2ccccc2c1=O)c1ccco1 | -39.2 | – | 0.82 µM [falling, full curve]
CC1CCN(Cc2nnnn2-c2ccc(Cl)cc2)CC1 | – | 29.1 µM [falling, single point] | –
O=C1CN(O)C=C2N=c3ccccc3=C2N1c1ccc([N+](=O)[O-])cc1 | – | – | 0.731 µM [rising, single point]
Cc1ccc(Cl)cc1NC1=C/C(=N\S(=O)(=O)c2cccs2)c2ccccc2C1=O | -67.4 | 0.0184 µM [falling, full curve, poor fit] | 32.6 µM [falling, partial curve, poor fit]
O=C(c1ccc(NS(=O)(=O)c2ccccc2)cc1)N1CCOCC1 | -6.58 | – | –
COc1cc(OC)cc(N(C(=O)CNC(=O)c2ccco2)C(C(=O)NCC2CCCO2)c2ccccc2)c1 (stereo not given) | -1.32 | 4.47 µM [falling, full curve, poor fit] | –
O=S(=O)(c1ccc(SCCOc2ccc(F)cc2)nc1)N1CCCC1 | 2.89 | 2.06 µM [rising, single point] | –
Clc1ccc(-c2nnc(COc3ncnc4sccc34)o2)cc1 | 31.5 | 29.1 µM [rising, single point] | 7.31 µM [rising, partial curve, poor fit]
Clc1ccc(C2=CSC3=Nc4cccc5cccc(c45)N23)cc1 | – | 0.461 µM [falling, full curve] | –
Cc1cccc(C(=O)OCc2cnc(Cl)s2)c1 | -35.7 | – | 32.6 µM [falling, single point]
O=C(C1CCCN(Cc2ccccc2Br)C1)N1CCCCC1 (stereo not given) | 1.96 | 20.6 µM [falling, single point] | –
COc1ccc(OC)c(NC(=O)N2CCCC(C)C2)c1 (stereo not given) | 5.16 | – | –
O=C(Nc1nc(-c2ccccn2)cs1)C1CC1 | -15.4 | 7.31 µM [falling, partial curve] | –
CCCSCCCNC(=O)Cn1cc2c(n1)CCC(C)C2 (stereo not given) | -18.8 | 29.1 µM [falling, single point] | –
COCc1cc(C)nc(NCCO)c1C#N | 0.893 | 29.1 µM [rising, single point] | –

SMILES | cell number change [%] | AC50 [1] | AC50 [2]
O=C(CN(C1CCCCC1)S(=O)(=O)c1ccc(Cl)cc1)NCc1cccnc1 | -23.4 | – | –
O=C(CCn1c(=O)c2sccc2n(CC(=O)OCc2ccccc2)c1=O)NCc1ccco1 | -33.1 | 29.1 µM [falling, single point] | 18.4 µM [falling, single point]
Cc1cc(N(CCO)CCO)ccc1N=Nc1cc(F)ccc1F | -65.4 | 5.17 µM [falling, full curve] | 23.1 µM [falling, single point]
CC(=O)OC1C(N2CCCCC2)c2c(ccc(/C=C/C(=O)N3CCCCC3)c2O)OC1(C)C (stereo not given) | -67.3 | 7.31 µM [falling, partial curve] | 2.91 µM [falling, full curve]
COc1cc2c(cc1OC)-c1cc(NC3CCCCCCC3)nc(=O)n1CC2 | -12.7 | 0.146 µM [falling, full curve, poor fit] | –
O=C(CSc1nc(O)c(-c2ccccc2)c(=O)[nH]1)N1CCOCC1 | – | – | 0.13 µM [rising, full curve, poor fit]
Cn1c(SCc2nc3ccccc3[nH]2)nnc1-c1cccs1 | -29.8 | 10.3 µM [falling, partial curve] | –
COc1ccccc1NC(=O)N1CCN(c2ccc3nnc(-c4ccc(F)cc4)n3n2)CC1 | -4.08 | – | 0.092 µM [rising, full curve, poor fit]
COc1ccc(/C=N/OCC(=O)N(Cc2ccccc2)c2ccccc2C(=O)O)cc1 | -2.02 | 0.058 µM [falling, full curve] | –
COc1ccc(Cl)cc1S(=O)(=O)N1CCN(C(=O)COc2ccccc2)CC1 | – | 0.58 µM [rising, single point] | 2.06 µM [rising, partial curve]
O=[N+]([O-])c1ccc(/C=C/c2ccncc2)cc1 | 26.4 | 0.58 µM [falling, single point] | 0.291 µM [rising, full curve, poor fit]
Cc1ccc(C(=O)Nc2ccccc2N2CCCC2)cc1 | 14.4 | 29.1 µM [rising, single point] | –
COc1cc(SC)ccc1C(=O)Nc1nc(C)cc(C)n1 | 13.6 | – | –
c1ccc(-c2cn3nc(-c4ccccc4)cnc3n2)cc1 | -13.6 | – | –
c1ccc(CCn2nnnc2C(c2cccnc2)N2CCN(c3nc4ccccc4s3)CC2)cc1 (stereo not given) | -28.6 | 0.103 µM [rising, full curve] | –
COc1ccc(NC(=S)Nc2ccccc2SC)c(OC)c1 | -16.4 | – | –
Cc1cccc(NC(=O)CSc2nc(C3CC3)nc3ccccc23)c1 | -13.9 | 0.58 µM [rising, single point] | –
CC(=O)c1sc2nc(=O)c(C)nn2c1C | 11.7 | 23.1 µM [falling, partial curve, poor fit] | –
CCc1cccc(CC)c1N(COC)C(=O)Cn1c(CO)nc2ccccc21 | -2.83 | 1.46 µM [falling, partial curve] | –
O=C(NCCCn1ccnc1)C(=O)NCC(c1ccco1)N1CCN(c2ccccc2)CC1 (stereo not given) | -4.1 | 0.461 µM [rising, partial curve, poor fit] | 0.461 µM [rising, full curve]
COc1ccc(NC(=O)C2CCN(C(=O)Nc3ccccc3)CC2)cc1S(=O)(=O)N(C)C | -11.8 | – | 4.61 µM [falling, partial curve, poor fit]

Structural class, the compounds so far containing an NH in an aromatic ring (two)
SMILES | cell number change [%] | AC50 [1] | AC50 [2]
O=C(CSc1nc(O)c(-c2ccccc2)c(=O)[nH]1)N1CCOCC1 | – | – | 0.13 µM [rising, full curve, poor fit]
Cn1c(SCc2nc3ccccc3[nH]2)nnc1-c1cccs1 | -29.8 | 10.3 µM [falling, partial curve] | –

Further compounds.

SMILES | cell number change [%] | AC50 [1] | AC50 [2]
COc1ccc(-c2cc(C(F)F)n3ncc(C(=O)NCC4CCCO4)c3n2)cc1 (stereo not given) | – | 6.51 µM [rising, single point] | 6.51 µM [rising, single point]
COc1ccc(Oc2nc3c(c(=O)n(C)c(=O)n3C)n2Cc2ccccc2)cc1 | 10.4 | 0.82 µM [rising, full curve, poor fit] | –
COc1cccc(C(C)NC(=O)c2ccncc2)c1 (stereo not given) | -22.5 | – | –
CC(C)COc1ccc(C(=O)Nc2ncn[nH]2)cc1 | -11.2 | – | –
COc1ccccc1NS(=O)(=O)c1cc(C(=O)N2CCCCCCC2)ccc1C | – | – | 2.06 µM [rising, partial curve, poor fit]
Cc1ccc(C(=O)NCCCN2CCOCC2)cc1S(=O)(=O)N1CCOCC1 | 13.8 | 1.84 µM [falling, partial curve, poor fit] | –
CCc1c(C)nc2c(Br)cccc2c1SCCC#N | -3.3 | 29.1 µM [rising, single point] | –
COc1cccc(CNC(=O)CCC(=O)n2ncc3cc(C)ccc32)c1OC | 8.36 | 1.84 µM [rising, partial curve, poor fit] | 0.731 µM [rising, single point]
O=C(CN1C(=O)C2CCCCC2C1=O)Nc1ccc(S(=O)(=O)Nc2ncccn2)cc1 (stereo not given) | -20.3 | – | –
CN(C)CCCNC(=O)CC(c1ccccc1)c1ccccc1O (stereo not given) | -14.5 | 14.6 µM [falling, partial curve] | 6.51 µM [falling, single point]
Cc1ccccc1S(=O)(=O)Cc1ccc(C(=O)N2CCN(c3cccc(C)c3C)CC2)o1 | – | 6.51 µM [rising, single point] | 6.51 µM [rising, single point]
CC(=O)Nc1ccc(NC(=O)CC2Nc3cccc4cccc(c34)NC2=O)cc1 (stereo not given) | -11.7 | – | –
CCc1ccc(NC(=O)Cn2ncn3c(cc4ccccc43)c2=O)cc1 | 11.2 | 6.51 µM [falling, single point] | –
CCOc1ccc(N(Cc2cc3cc(C)ccc3[nH]c2=O)C(=O)COC)cc1 | -12 | – | –
CCOC(=O)CNNC(=O)Nc1ccc(Cl)c(Cl)c1 | – | 29.1 µM [rising, single point] | –
O=C(CCCCCn1c(=O)[nH]c2ccccc2c1=O)NCCc1c[nH]c2ccccc12 | -23.7 | 29.1 µM [falling, single point] | –
Cc1cc(O)cc(=O)n1Cc1ccco1 | 28.3 | 5.17 µM [rising, partial curve] | –
C/C=C/C1=CC(=O)C[C@H](c2ccc(OC)c(OC)c2)C1 | -3.5 | 0.00517 µM [falling, full curve, poor fit] | 0.00517 µM [falling, full curve, poor fit]
CCN(CC(=O)N1CCOCC1)S(=O)(=O)c1ccc2ccccc2c1 | 6.5 | 0.146 µM [rising, full curve, poor fit] | –
